Test results published in article PMC12362813.

Amino acid sequences for entries named in this document (tags omitted). A change or cut given only in a name is not applied to a line headed by its entry.
UniProt Q86WV6: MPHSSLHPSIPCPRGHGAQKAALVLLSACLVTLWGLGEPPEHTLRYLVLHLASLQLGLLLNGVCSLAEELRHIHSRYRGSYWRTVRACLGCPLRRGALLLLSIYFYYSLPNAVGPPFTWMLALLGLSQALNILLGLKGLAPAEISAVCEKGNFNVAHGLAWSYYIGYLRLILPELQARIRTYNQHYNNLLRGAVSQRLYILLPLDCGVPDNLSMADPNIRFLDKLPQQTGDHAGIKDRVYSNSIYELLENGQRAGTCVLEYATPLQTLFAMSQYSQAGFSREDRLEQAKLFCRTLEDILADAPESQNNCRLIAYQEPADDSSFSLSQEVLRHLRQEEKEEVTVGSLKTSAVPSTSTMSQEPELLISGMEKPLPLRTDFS
UniProt O95816: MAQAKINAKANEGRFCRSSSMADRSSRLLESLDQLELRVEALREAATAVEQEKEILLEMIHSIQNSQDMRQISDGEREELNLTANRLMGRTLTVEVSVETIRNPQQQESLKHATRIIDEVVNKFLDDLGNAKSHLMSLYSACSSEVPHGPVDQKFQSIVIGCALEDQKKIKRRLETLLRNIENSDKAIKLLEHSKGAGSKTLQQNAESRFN
UniProt Q9UNE7: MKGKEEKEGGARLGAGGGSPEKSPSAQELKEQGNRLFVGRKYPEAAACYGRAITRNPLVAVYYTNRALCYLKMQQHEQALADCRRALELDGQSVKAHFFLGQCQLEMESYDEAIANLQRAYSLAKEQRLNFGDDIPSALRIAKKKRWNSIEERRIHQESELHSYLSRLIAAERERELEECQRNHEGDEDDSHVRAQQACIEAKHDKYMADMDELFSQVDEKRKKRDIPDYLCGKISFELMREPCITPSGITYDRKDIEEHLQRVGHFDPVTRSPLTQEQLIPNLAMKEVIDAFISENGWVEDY

Target: GST-STING (UniProt Q86WV6)
Assay: pull-down; GST pull-down: GST-STING incubated with His-BAG2 or His-STUB1 for 4 h at 4 °C, then glutathione-Sepharose beads for 3 h at 4 °C; eluted with SDS buffer; Western blot; both purified

Substance	binding
His-BAG2 (from UniProt O95816 1-211)	binds
His-STUB1 (from UniProt Q9UNE7 1-303) (enzyme)	binds

Results are given in words; binding and its absence hold for the method and conditions named. Binding can be weak; no strength is given.
